PubChem BioAssay AID743121 | NCATS – 2013
The whole screen tested about 26,000 reagents; below is a random part of them. 167 of all reagents (0.63%) count as active. 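Calls are per gene from RSA p-values that are not deposited; an individual active-marked siRNA can sensitise only weakly.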 A number with no mark means an inactive call. Reagents against one gene are numbered here. Not all columns of the deposit are shown.

Screen: 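Genes whose silencing strengthens cell killing by camptothecin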 (primary screen)
System: MDA-MB-231 cells, a human breast cancer line
Knock-down reagent: single siRNA against human genes, 20 nM siRNA (0.8 pmol per well)
Duration: 120 h (drug added 48 h after transfection, read 72 h later)
Treatment: camptothecin 20 nM (about EC30) for 72 h; vehicle 0.1% DMSO in parallel plates
Read-out: 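CellTiter-Glo ATP signal, scaled to control siRNA as percent viability; sensitisation given as log2 of untreated divided by camptothecin-treated viability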
Direction: log2 vehicle/camptothecin viability: higher = stronger sensitisation to camptothecin; viability with camptothecin: higher = more viable cells
Rule for the call: 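Active genes have an RSA gene-level p-value below 0.001, computed from the ratios of their separate siRNAs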

GANC (glucosidase alpha, neutral C) #1 — log2 vehicle/camptothecin viability = -0.397; viability with camptothecin (% of control) = 68.6
GANC (glucosidase alpha, neutral C) #2 — log2 vehicle/camptothecin viability = -0.197; viability with camptothecin (% of control) = 81.8
GANC (glucosidase alpha, neutral C) #3 — log2 vehicle/camptothecin viability = -0.404; viability with camptothecin (% of control) = 39.7
GANC (glucosidase alpha, neutral C) #4 — log2 vehicle/camptothecin viability = -0.0294; viability with camptothecin (% of control) = 89.9
CROT (carnitine O-octanoyltransferase) #1 — log2 vehicle/camptothecin viability = -0.159; viability with camptothecin (% of control) = 123
CROT (carnitine O-octanoyltransferase) #2 — log2 vehicle/camptothecin viability = 0.205; viability with camptothecin (% of control) = 85
CROT (carnitine O-octanoyltransferase) #3 — log2 vehicle/camptothecin viability = -0.144; viability with camptothecin (% of control) = 107
CROT (carnitine O-octanoyltransferase) #4 — log2 vehicle/camptothecin viability = -0.135; viability with camptothecin (% of control) = 95.8
GNAQ (G protein subunit alpha q) #1 — log2 vehicle/camptothecin viability = -0.474; viability with camptothecin (% of control) = 96
GNAQ (G protein subunit alpha q) #2 — log2 vehicle/camptothecin viability = -0.303; viability with camptothecin (% of control) = 66.2
GNAQ (G protein subunit alpha q) #3 — log2 vehicle/camptothecin viability = -0.095; viability with camptothecin (% of control) = 114
GNAQ (G protein subunit alpha q) #4 — log2 vehicle/camptothecin viability = -0.12; viability with camptothecin (% of control) = 90.4
STK32B (serine/threonine kinase 32B) #1 — log2 vehicle/camptothecin viability = -0.191; viability with camptothecin (% of control) = 40.9
STK32B (serine/threonine kinase 32B) #2 — log2 vehicle/camptothecin viability = -0.13; viability with camptothecin (% of control) = 104
STK32B (serine/threonine kinase 32B) #3 — log2 vehicle/camptothecin viability = -0.299; viability with camptothecin (% of control) = 93.5
STK32B (serine/threonine kinase 32B) #4 — log2 vehicle/camptothecin viability = 0.0694; viability with camptothecin (% of control) = 74.3
DUT (deoxyuridine triphosphatase) #1 — log2 vehicle/camptothecin viability = -0.443; viability with camptothecin (% of control) = 54.8
DUT (deoxyuridine triphosphatase) #2 — log2 vehicle/camptothecin viability = 0.0907; viability with camptothecin (% of control) = 62.9
DUT (deoxyuridine triphosphatase) #3 — log2 vehicle/camptothecin viability = -0.115; viability with camptothecin (% of control) = 33.4
DUT (deoxyuridine triphosphatase) #4 — log2 vehicle/camptothecin viability = -0.0723; viability with camptothecin (% of control) = 81.7
TBX5 (T-box transcription factor 5) #1 — log2 vehicle/camptothecin viability = 0.369; viability with camptothecin (% of control) = 12.1
TBX5 (T-box transcription factor 5) #2 — log2 vehicle/camptothecin viability = 0.184; viability with camptothecin (% of control) = 95.3
TBX5 (T-box transcription factor 5) #3 — log2 vehicle/camptothecin viability = 0.0341; viability with camptothecin (% of control) = 82.2
TBX5 (T-box transcription factor 5) #4 — log2 vehicle/camptothecin viability = -0.0615; viability with camptothecin (% of control) = 55.7
HERC1 #1 — log2 vehicle/camptothecin viability = 0.00474; viability with camptothecin (% of control) = 115
HERC1 #2 — log2 vehicle/camptothecin viability = -0.31; viability with camptothecin (% of control) = 69
HERC1 #3 — log2 vehicle/camptothecin viability = 0.0102; viability with camptothecin (% of control) = 87.7
HERC1 #4 — log2 vehicle/camptothecin viability = -0.0238; viability with camptothecin (% of control) = 101
FOXK2 (forkhead box K2) #1 — log2 vehicle/camptothecin viability = 0.0328; viability with camptothecin (% of control) = 102
FOXK2 (forkhead box K2) #2 — log2 vehicle/camptothecin viability = -0.000115; viability with camptothecin (% of control) = 38.1
FOXK2 (forkhead box K2) #3 — log2 vehicle/camptothecin viability = -0.106; viability with camptothecin (% of control) = 95.2
FOXK2 (forkhead box K2) #4 — log2 vehicle/camptothecin viability = 0.0312; viability with camptothecin (% of control) = 43.7
CLCN2 (chloride voltage-gated channel 2) #1 — log2 vehicle/camptothecin viability = -0.154; viability with camptothecin (% of control) = 74.6
CLCN2 (chloride voltage-gated channel 2) #2 — log2 vehicle/camptothecin viability = -0.0654; viability with camptothecin (% of control) = 59
CLCN2 (chloride voltage-gated channel 2) #3 — log2 vehicle/camptothecin viability = -0.38; viability with camptothecin (% of control) = 37.4
CLCN2 (chloride voltage-gated channel 2) #4 — log2 vehicle/camptothecin viability = 0.0291; viability with camptothecin (% of control) = 94.3

4 successive entries already listed, quoted:
GNAQ (G protein subunit alpha q) #2 — log2 vehicle/camptothecin viability = -0.303; viability with camptothecin (% of control) = 66.2
GNAQ (G protein subunit alpha q) #3 — log2 vehicle/camptothecin viability = -0.095; viability with camptothecin (% of control) = 114
GNAQ (G protein subunit alpha q) #4 — log2 vehicle/camptothecin viability = -0.12; viability with camptothecin (% of control) = 90.4
STK32B (serine/threonine kinase 32B) #1 — log2 vehicle/camptothecin viability = -0.191; viability with camptothecin (% of control) = 40.9
